Not every detail of the peptide structures is certain; ends, links or a residue may be inferred. Ends that are not written are not given here.
Test system: HUVEC
Experiment: ^51Cr release CIK cytotoxicity assay, endothelial cell targets pre-treated with BFA, protein or peptide
Type: cell-based, human
Conditions: E:T 20:1
Procedure: Target cells were metabolically labelled with ^51Cr (Dupont—New England Nuclear, Boston, Mass.) by incubating 1×10^6 cells in […] ^51Cr at 37° C. for 1-1.5 hours. The labelled cells were washed three times with phosphate buffered saline (PBS) containing 0.1% bovine serum albumin. The labelled cells were distributed in flat-bottomed 96 well microtiter plates at a concentration of 2×10^4 cells/well in triplicate. Effector (CIK) cells were added at the indicated ratios. Mabs were added prior to the addition of effector cells, and incubated for 15-30 minutes at room temperature. The final volume of the assay mixture in each well was 0.2 ml. After 4 hours at 37° C., the cells were collected by centrifugation and an aliquot of the supernatant was counted in a gamma counter (Micromedic Systems, Horsham, Pa.). The percentage of specific ^51Cr release was calculated according to the following equation: […]
Spontaneous release was obtained by incubating the labelled cells in complete medium alone and maximal release by treatment of the cells with 1% NP-40.
For brefeldin A (BFA) treatment, freshly confluent HUVEC monolayers, nonadherent target cells or CIK cells at 0.5-2×10^6 cells per ml were incubated with medium supplemented with 0.5-10 μg of brefeldin A (B6hringer Mannheim GmbH, Mannheim, Germany) per ml medium and incubated for 2-6 hours in a humidified incubator with 5% carbon dioxide at 37° C. BFA was dissolved at 100 μg per ml in 70% ethanol and used fresh or stored up to 4 weeks at −20° C. Prior to cytotoxicity assay the cells were rinsed three times with PBS, and fresh medium not containing BFA was added for the remainder of the assay (FIG. 4).
Both HUVEC and OCI-Ly8 cells were incubated with BFA at concentrations of 0, 2.5, 5, 7.5 and 10 μM for 6 hours as described above, washed, labeled with ^51Cr and used in a cytotoxicity assay with d21 CIK cells at an E:T ratio of 20:1. Preincubation of EC targets with 2.5 μM BFA reduced CIK mediated cytotoxicity by 40%. […]

## AVLSAEQLR
10 nM to 10 μM
  protection of EC from CIK mediated lysis by peptide: protect EC from CIK mediated lysis in a dose dependent manner
Peptide 1 μM, present for entire assay
  reduction of EC lysis: 50%
Peptide 10 μM
  suppression of CIK mediated lysis of EC: almost completely

Reference: US20080241194A1, “COMPOSITIONS AND METHODS FOR PROTECTING ORGANS, TISSUE AND CELLS FROM IMMUNE SYSTEM-MEDIATED DAMAGE” (THE BOARD OF TRUSTEES OF THE LELAND STANFORD JUNIOR …, priority 1998, published 2008)
